Measurements published in the supplement of paper PMC10338343.
± gives the standard deviation. The list shows a part of the results. The uncertainty is large for many entries.

System: EfPiwi piRISC loaded with L1MC piRNA (26 nt)
Assay: pre-steady-state target cleavage rate (min^-1); guide: L1MC piRNA 5'p-UAACUAAAUACUAUGCAAGCUGUAGG; MIWI and MILI are mouse PIWI proteins and EfPiwi is from a freshwater sponge; tags in brackets are library labels; higher = faster piRNA-guided slicing of the target
Settings: auxiliary factor: 500 nM Ephydatia muelleri Gtsf1
Protocol: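 Cleave-'n-Seq: a library of target RNAs (target site in constant flanks) at […] was incubated with 1 nM active freshwater sponge Ephydatia fluviatilis Piwi piRISC (synthetic 5'-monophosphorylated piRNA guide) with or without 500 nM EmGtsf1 at 33 °C for 1 min to 16 h. Uncleaved targets were sequenced and the pooled three trials fitted to a burst-and-steady-state model to give the pre-steady-state cleavage rate (min^-1). Sequence is the target site only. Fits with R² ≤ 0 are excluded.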

| Sequence | pre-steady-state target cleavage rate |
| --- | --- |
| UCCUGGAUGUGCAAGCAUAGUAUUUAGUUA | 0.00427 ± 0.0022 |
| UCCUCCUACACGAUGCAUAGUAUUUACAAA | 0.00277 ± 0.0035 |
| UCCUGCUACAGCAUCCAUAGUAUUUAGUUA | 0.00233 ± 0.0017 |
| UCCUGCUAGUGCUUGCAUAGUAUUUUCAAA | 0.00146 ± 0.0038 |
| UCCUGGUACAGCUUGCAUAGAUAUUAGAAA | 0.00185 ± 0.0061 |
| UCCUGGAUGUCCUACCAUAGUAUUUAGUUA | 0.00203 ± 0.0048 |
| UCCUGCUACAGCUUGCUUAGUAUUUACAAA | 0.00143 ± 0.0028 |
| UCCUGGAACAGCUACCAUAGUAUUUAGUUA | 0.00309 ± 0.0026 |
| UCCUGGAUGAGCUUGCUAUAGUAUUUAGUUA | 0.00201 ± 0.003 |
| UCCUGGAACAGCUUGCAUUGUAUUUACUUA | 0.00192 ± 0.0028 |
| UCCUCCUACAGCUUGCAUAGUAUUUAGUAA | 0.0113 ± 0.005 |
| UCCUCCUACUCGUUGCAUAGUAUUUAGUUA | 0.101 ± 0.025 |
| UCCUGGAUGUCGAUGCUAGUAUUUAGUUA | 0.000735 ± 0.0049 |
| UCCUGGAACAGCUUGCAUACUAUUUAGUUA | 0.00571 ± 0.0014 |
| UCCUCCUACAGCUUGCAUUCAAUUUUCAAA | 0.00141 ± 0.0052 |
| UCCUGGAUGAGCUUGCAUAGAUUUUAGUUA | 0.00056 ± 0.0082 |
| UCCUGGAUGAGCUUGCAUAGAAUUUAGAUA | 0.00158 ± 0.0024 |
| UCCUGGUACAGCUUUCAUAGUAUUUAGUUA | 0.00404 ± 0.0023 |
| UCCUGCUACAGCUUGCAUAGUAUUCUAGUUA | 0.0043 ± 0.002 |
| UCCUGGUACAGCUUGCAUAGGUAUUUAGUUA | 0.0023 ± 0.0042 |
| UCCUGGAUGUCGAAGCAUAGUAUUUAGUCA | 0.00093 ± 0.0087 |
| UCCUGGAUGAGCUUGCAAAGUAUUUACAAA | 0.00291 ± 0.0039 |
| UCCUGGAUGUGCUUGCACUAGUAUUUAGUUA | 0.000325 ± 0.014 |
| UCCUGCUACAGCAUGCAUAGUAUUUAGUAA | 0.00673 ± 0.0029 |

Same assay, conditions: auxiliary factor: none (no Gtsf1)

| Sequence | pre-steady-state target cleavage rate |
| --- | --- |
| UCCUCCUACACGAUGCAUAGUAUUUACAAA | < 0.0001 |
| UCCUGCUACAGCAUCCAUAGUAUUUAGUUA | < 0.0001 |
| UCCUGCUAGUGCUUGCAUAGUAUUUUCAAA | 0.000142 ± 0.032 |
| UCCUGGUACAGCUUGCAUAGAUAUUAGAAA | 0.000443 ± 0.013 |
| UCCUGGAUGUCCUACCAUAGUAUUUAGUUA | 0.000479 ± 0.013 |
| UCCUGGAACAGCUACCAUAGUAUUUAGUUA | 0.000492 ± 0.018 |
| UCCUGGAUGAGCUUGCUAUAGUAUUUAGUUA | 0.00101 ± 0.0075 |
| UCCUGGAACAGCUUGCAUUGUAUUUACUUA | 0.000367 ± 0.022 |
| UCCUGGAUGUCGAUGCUAGUAUUUAGUUA | 0.000129 ± 0.045 |
| UCCUGGAACAGCUUGCAUACUAUUUAGUUA | 0.00116 ± 0.0068 |
| UCCUCCUACAGCUUGCAUUCAAUUUUCAAA | 0.000293 ± 0.014 |
| UCCUGGAUGAGCUUGCAUAGAUUUUAGUUA | 0.000624 ± 0.0099 |
| UCCUGGAUGAGCUUGCAUAGAAUUUAGAUA | 0.000436 ± 0.013 |
| UCCUGGUACAGCUUUCAUAGUAUUUAGUUA | 0.000106 ± 0.04 |
| UCCUGCUACAGCUUGCAUAGUAUUCUAGUUA | 0.000619 ± 0.011 |
| UCCUGGAUGUCGAAGCAUAGUAUUUAGUCA | < 0.0001 |
